Reference: PubChem BioAssay AID1508600 (Functional Genomics Laboratory (NCATS/FGL), 2020)
The campaign covered roughly 53,000 sequences. About 3,700 (7%) were called active.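 How the source made its calls: active means gene knockdowns whose robust z-score for IL-1 alpha signal is at least 2 or at most -2, so actives lie on both sides; inactive means the rest.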 The list shows a part of the results.

assay: Components of the Cytosolic LPS Sensing Pathway: Gene Identification via Genome-wide siRNA Screen; settings: RAW264.7 macrophages, IL-1a HTRF, actives lie on both sides, screened at 100 nM (by protocol), cells primed 5 h with Pam3CSK4 first;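 further: robust z of the log signal after scaling to non-targeting control siRNA wells of the plate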
Summary of the method: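 RAW264.7; siRNA 100 nM final, RNAiMAX, 48h 37 degrees C; Pam3CSK4 5 h; LipidA + TransIT-TKO 24 h; IL-1a HTRF; CellTiter-Glo viability; robust z vs negative-control median.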

| Sequence | z-score |
| --- | --- |
| GGCCCAUCCUGAAACCAAATT against Wfdc15b | active: -2.04 |
| GCAGGAUUGUUAAGAGAAATT against Gnaq | inactive: 0.434 |
| GGACAUUCUUUAAGAAGAUTT against Tjp3 | inactive: -0.584 |
| GGUGUGUUCCAUAUGACAATT against P2rx7 | inactive: 1.28 |
| CGAAUCUGGGAUUUAUCCATT against Tmem165 | inactive: -0.527 |
| GGUAAAAAUAGCAACAGAATT against Cpxm2 | inactive: -1.14 |
| GGACAAAGUGAAUUAUAGCTT against Tmem123 | inactive: 1.12 |
| GGAAAGCUUUAAAAAAUCCTT against Mlh1 | inactive: -0.734 |
| GCAUGGGCAUAACCGAAAGTT against Rex2 | inactive: -0.332 |
| GGAUGAAGAAAACUGGCUUTT against Tsx | inactive: -0.764 |
| GGAUGCUCAGGAGAAGCUGTT against Tpm3 | inactive: -0.000785 |
| GGACCUCCACCGUUACUACTT against Sgsh | inactive: 0.367 |
| GGCAAAUUUAGAUAAGUACTT against Cyp39a1 | inactive: 0.64 |
| GGCAAUUUCCAAGCAGUUUTT against Wnt8b | inactive: -0.27 |
| GGAUCUAAGUUUGAUGUCGTT against Ugt2b1 | inactive: -1.7 |
| GGAUCCCAGUUCUGGGUAATT against Dok1 | inactive: -0.0628 |
| GGUGAAAGCAGAAAUGGAGTT against Dpysl5 | inactive: -0.63 |
| CCAUUGAUCGUUUAGUCAATT against Trim33 | inactive: 0.836 |
| GGUGGGAUGCAGAUCUUUGTT against Ubc | inactive: 1.38 |
| GGAAAAAAGAUGAAUUGCCTT against Cbx8 | inactive: 1.63 |
| CGUAUUAUCUGAGUGAACATT against Fth1 | inactive: -0.974 |
| GGCGGUUUCACCUAUACAATT against Rspo4 | inactive: 0.821 |

| Sequence | z-score |
| --- | --- |
| GGCAGGUACAGAAACAGUUTT against Olfr432 | inactive: -1.9 |
| GGUUGCAUUUCCAAAAACUTT against Gng10 | inactive: -0.611 |
| CCCAUUCACUCAUCACAUGTT against F630003A18Rik | inactive: -1.4 |
| GGGCAAUUUGUUCGACCCATT against Abca2 | inactive: -0.14 |
| GGAGCUUGCCAUAUUCCUCTT against Leprotl1 | inactive: 0.915 |
| GGGAGUGGUUGUCUAUUCCTT against Nip7 | inactive: 0.00825 |
| GGAGAAAAUGAAGAAGGAATT against Taf5 | inactive: -1.99 |
| CCCAAAUUGAUCUCAGAGATT against Cdc42 | inactive: -1.14 |
| GGAAGAUACGUGCAAAAUGTT against Rbms2 | inactive: -0.562 |
| CGAAUAGUAGAAGAAACUCTT against Osgepl1 | inactive: 0.904 |
| CCACGCUACCUUCAAGAGATT against Clec14a | inactive: 0.946 |
| GGCCAAGUUAGUUGAACCCTT against Dock11 | inactive: -0.335 |
| GGAAGAAACAACAAUGAUCTT against Calhm5 | inactive: 0.556 |
| GCAUUUCGCCUCUUUCAUATT against Elac1 | inactive: -0.405 |
| CGGGCUACCAUUAUGGUGATT against Atp6ap2 | inactive: 0.382 |
| GCAGGUUAUACGCUUAGAUTT against Irx5 | inactive: -0.0628 |
| GGAUGACCAGACCUUGACGTT against Fgfrl1 | inactive: -1.12 |
| GGGCUUAAAACUUUUCAUATT against Cenpi | inactive: -0.971 |
| GGGUUUUCUUUGUUUUAGUTT against Trim8 | inactive: 0.347 |
| GGCAAUUUCACGAUUUGCUTT against Eif2b4 | inactive: -0.532 |
| CCUACUUAGUGUCAGAAGATT against M1ap | inactive: -0.115 |
| GGCAUGCUUGGCUUAUUUGTT against Kcnk4 | inactive: 0.0317 |

| Sequence | z-score |
| --- | --- |
| GGUUGGAAACACAGCAAAATT against Cenpq | inactive: -0.516 |
| GGAUGUCCUACUAGUUAUUTT against 9130401M01Rik | inactive: 1.35 |
| GGAAGACAUUGUCUUGUUUTT against Mindy4 | inactive: 1.25 |
| CCCUUUCGACAGAUUAGACTT against Zfp69 | inactive: -1.23 |
| GGUAUGAAUACCACUGGGCTT against Mob1a | inactive: 0.598 |
| GCUGUGGAACUUAUGUUUUTT against Faxc | inactive: -0.518 |
| GUAGAAAACAUCUCACAAUTT against Krtap21-1 | inactive: 0.319 |
| CCGGACCUUAAAAAUGGGCTT against 4930465K10Rik | inactive: 0.921 |
| GGAGAUUUUCCAGAGGCUGTT against Josd1 | active: -2.24 |
| GCCUUACUGACUCGUGUCCTT against Ccp110 | active: -2.33 |
| GGGAAAACUUGGGUAUUUCTT against Pgrmc1 | inactive: 1.64 |
| CGAAGAUGCCAGUUAUGUUTT against Fndc11 | inactive: -0.254 |
| GGUUAUCCUCAUUGAUCCGTT against Rpl15 | inactive: 0.0822 |
| CGAGGUGCUAAUCUGGCCUTT against Dctpp1 | inactive: 0.241 |
| CCCUAUGGACUGAGUUUGUTT against Olfr183 | inactive: -0.036 |
| GGUAACUAACCUUAAUCUUTT against Slc16a1 | inactive: -0.178 |
| GCUAACGAAGGUAGUGUACTT against Gtpbp8 | active: 3.34 |
| CCUAUUUCCUUAUUUCCCGTT against Slc12a3 | inactive: 0.531 |
| CGUGAACGUAGAGUUUUCUTT against Fcrl5 | active: 3.59 |
| GGGAUGUGAUAGUUCAUAATT against Stil | inactive: -0.304 |
| GGUUUCUACACAUUUAAGATT against Ptgdr2 | inactive: 1.57 |
| GCUACAACAAGACAAAGUCTT against Tada1 | inactive: 1.84 |

| Sequence | z-score |
| --- | --- |
| GCACUUGUGCUUUCAAUAATT against Rhox1 | inactive: -1.49 |
| CCAGAAUGACGAUGCUGAATT against Ssrp1 | inactive: 0.294 |
| GGUUAUUCCACCUCUUGCCTT against Pacc1 | inactive: -0.596 |
| GGAGACCACUAGCUUCAAUTT against B430306N03Rik | inactive: 1.48 |
| GAAAGGAAAGCUAGCCAUGTT against Gm5622 | inactive: 0.614 |
| CCCUAGAAUUCCAAAGAAATT against Sox7 | inactive: 0.0464 |
| GCAGAUCUAUCCUAGCCGGTT against Eif1 | inactive: -0.4 |
| GGCCCUCAAUACCUGUGGUTT against Olfr690 | active: -3.13 |
| GGAUCUCACAGUGAAGAAGTT against Krba1 | inactive: 0.392 |
| GGUGAAGAUGCAGACCUUUTT against Slc25a15 | inactive: -0.479 |
| GGAGGUGGAAUACUGCAUCTT against 4931406B18Rik | inactive: 0.644 |
| CCUCUCCUAUUCCUAGUGUTT against Olfr183 | inactive: -0.996 |
| GGACAAAAGCAGCUUGAGUTT against Coa6 | inactive: 0.963 |
| AUGCACCAUGCCGUUGACUTT against Oxct2b | inactive: 0.422 |
| GCAGUACCACUCUCUUUUUTT against Sap130 | inactive: 1.02 |
| GGAAAUCAUGAAGCUGAAATT against Clpp | inactive: -0.0221 |
| GGACAUUGUUAAAGGCAUATT against Kpna2 | inactive: 0.292 |
| GGAUUCCUUACCAAAGAAGTT against Ccdc7b | inactive: -0.918 |
| GCACUUUGACCUGAAUCUATT against Wdr46 | inactive: 0.824 |
| GGACAACCCAGUCUCAAAATT against Mrpl43 | inactive: 1.44 |
| CCACAAAACCACACCAGUGTT against Olfr24 | inactive: -0.39 |
| GGAUAUUUUUGGCAGCCCUTT against Slco1b2 | inactive: -1.67 |

| Sequence | z-score |
| --- | --- |
| CCUCAGUGCUUACUUUGAATT against Dusp3 | inactive: -0.109 |
| GGGAAGGUAAGGCAUAAGCTT against Mkx | inactive: -0.561 |
| GGAAAUUUGCCAACAUACUTT against Acsm3 | inactive: 1.42 |
| GCCACUCUUAGUGCUAACUTT against Tctn3 | inactive: -1.25 |
| GGUGAUCAAUCCUCUAAUATT against Eid2 | active: 2.61 |
| GGCAAAGAGUGGUAAGAGUTT against Olfr1166 | active: -2.72 |
| GGAAGCCUUCACAAUCAUGTT against Myl2 | inactive: -0.41 |
| GCUACCUGCUCUAUACAUGTT against Crlf1 | inactive: 1.03 |
| GCCCAGUCUUGAUUAUCUATT against Atp6v0e2 | inactive: -0.748 |
| GGACCACAGAUGAAUUGGATT against Relb | inactive: -0.537 |
| GGACAAUUACAACACUCAATT against Ablim3 | inactive: -0.00526 |
| GGAAGAAAAGAAGCUUUUGTT against Palmd | inactive: 0.343 |
| GGCAAUUCUUGACAAGAAUTT against Rbms3 | inactive: -0.903 |
| GGGCUGGAAUUCUUUUGUGTT against Cwh43 | inactive: 0.0804 |
| GGGUGAGCAGUACAUUCAATT against Plekhg6 | active: 2.73 |
| CCGUUUCUGUAUGACCUGGTT against Rbbp7 | inactive: -0.121 |
| GGAGCUGGUGUUGAGUGAGTT against Slfnl1 | inactive: -1.81 |
| GCUGUAUCCUGUAGUGAGUTT against Spsb1 | inactive: -0.221 |
| GCAAUCCAAGCCAAACUCCTT against Usp24 | inactive: 0.163 |

Looked up one by one from the entries so far:

| Sequence | z-score |
| --- | --- |
| GGUGUGUUCCAUAUGACAATT against P2rx7 | inactive: 1.28 |
| GGAUUCCUUACCAAAGAAGTT against Ccdc7b | inactive: -0.918 |

Some of the entries above, reformatted.
GCUGUAUCCUGUAGUGAGUTT against Spsb1
  z-score: inactive: -0.221
GCAAUCCAAGCCAAACUCCTT against Usp24
  z-score: inactive: 0.163
